HELM strings list residues between dots; [ac] is acetyl, [am] amide, other brackets name non-standard units.

This series can be described thus: peptide synthesis. To be noted: whole synthesis, HPLC and MALDI-TOF MS.

With “PEPTIDE1{G.K.K.Y.R.R.F.R.W.K.F.K.G.K.L.F.L.F.G.[am]}$$$$V2.0”, the “final HPLC purity” value is reported as more than 95%.
